According to the supplement of paper PMC3334620:
Whole data set: some 33,000 sequences, median “E-score (-0.5 to 0.5)” near -0.0034, cut for the highest 2% near 0.25. This is one part of the list.

target: T1, Yap3 (UniProt P38749); test: PBM E-score (8-mer binding enrichment) (E-score (-0.5 to 0.5)); higher = stronger / more preferred TF binding; conditions: protein concentration: 100 nM; construct: GST-full length
T1 sequence: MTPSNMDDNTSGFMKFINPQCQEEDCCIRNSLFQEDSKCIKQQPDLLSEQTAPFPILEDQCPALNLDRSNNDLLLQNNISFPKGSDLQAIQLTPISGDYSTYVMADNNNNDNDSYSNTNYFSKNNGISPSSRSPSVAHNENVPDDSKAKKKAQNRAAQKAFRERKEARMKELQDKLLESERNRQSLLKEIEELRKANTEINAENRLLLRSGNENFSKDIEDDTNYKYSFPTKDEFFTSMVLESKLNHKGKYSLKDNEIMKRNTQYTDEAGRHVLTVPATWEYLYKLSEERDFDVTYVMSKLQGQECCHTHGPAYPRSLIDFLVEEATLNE
Procedure, shortened: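 PURExpress in vitro transcription/translation supplied GST-tagged yeast transcription factors, either full-length or DNA-binding domain. Applied at about 100-200 nM to universal all-10-mer Agilent arrays double-stranded by primer extension, the bound protein was detected with fluorescent anti-GST. E-scores, modified Wilcoxon-Mann-Whitney statistics, were given by the Universal PBM Analysis Suite to ungapped eight-base words pooled with their reverse complements after masliner normalisation.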

Sequence	PBM E-score
TGTAAAAA	0.236
AACGCTGA	-0.0776
AGGTTTTA	-0.0254
CAATATGC	0.0657
ATCGCGTC	0.0291
CGCTCCTA	-0.177
ACTTGACT	0.0954
CGATTGCC	0.0196
CGCCGCAA	-0.0367
AGTGCACG	0.09
CTCGATAC	0.139
AAGTGTAT	0.136
AGCAAAAG	-0.0951
CCTAGAAA	0.022
TATCTCCA	0.198
CTACTTGC	0.126
AGAGGACG	0.0405
CCTGCCAA	-0.144
CTATACAC	-0.122
ATCGGAGA	-0.118
GAACGGCC	-0.132
AACTAGCT	-0.0564
ATGCGTTC	0.174
ACTACCCC	-0.099
GTGAACAA	0.0727

Sequence	PBM E-score
AATCTGTC	0.115
ACGATACA	0.0599
ACGCTTGC	-0.177
AAAGACGC	-0.0497
AAACAGGG	0.0316
ACCCCGAA	0.111
AAGTCCTA	-0.0884
AGTGCTAG	0.112
ATGCGCTG	-0.187
ATTACTTG	0.165
ACACGCAT	0.0231
CACCAAAC	0.135
CCGCCGTA	0.0805
GCGCCTAC	-0.0312
CTGTGACC	-0.0819
CCCGTGGA	-0.231
CCCCCCAA	-0.348
GAGGAACA	0.0869
AATACGGT	0.0519
GAACTCTC	-0.0889
CTGGATCC	0.121
AGAAGGCG	-0.107
GGGTGGGA	0.0567
GATCCTTA	-0.00302
ACTACTAA	0.0558

7 successive records from above:
Sequence	PBM E-score
CCGCCGTA	0.0805
GCGCCTAC	-0.0312
CTGTGACC	-0.0819
CCCGTGGA	-0.231
CCCCCCAA	-0.348
GAGGAACA	0.0869
AATACGGT	0.0519

More results.

Sequence	PBM E-score
CCCGGTAA	-0.139
AATCTTTA	0.0419
CTAGTCTA	-0.146
TCCCTGAA	0.0587
AACTCTAT	-0.0612
AAATTCGT	0.312
ACCAGTTG	0.0294
GTGACCAC	-0.236
CCTAGACC	-0.146
CTACCATA	0.152
TAGCAAAA	0.0444
AACCAGGA	0.0985
CCTTGGTC	-0.183
CTATAGAG	-0.161
CGCCACGC	-0.193
CGTGTAAA	-0.0448
AAAAGCTC	0.0576
CGCTTGTC	0.0721
GAGACCGC	-0.207
GTGCTGTA	-0.165
AATCGTAA	0.191
CCAGCATC	-0.153
CATGAATC	-0.0443
CTGATCTA	-0.166
ACCGCTCT	-0.0907

Sequence	PBM E-score
AGCAGCGG	-0.196
CTACCCCA	0.0317
ATAAAGAA	0.26
AATACCAT	0.0373
GGAAGACA	0.0335
TAGTCATA	0.217
ACTATTAG	0.136
CATGTAAA	0.0358
AAAAGGTA	-0.0209
ACTCCGAA	-0.142
AGTCAGCC	0.0707
CCAATGGC	-0.12
GATAAAAC	0.219
TACCCGGA	0.0391
CCGAGTCA	-0.0996
TCTGGTCA	0.00698
ACTACGGA	0.0435
AACACTGC	0.186
ATTCAAGC	0.0943
ACCAGGGC	-0.283
ATCGGTAG	0.11
CAATCATA	0.174
TAAGGGCA	-0.0126
CACCAAAA	0.102
AGGAGTGG	-0.245

Sequence	PBM E-score
CACTAGGC	-0.0392
CAAGGGCC	-0.275
ATAGTTTG	0.194
AAGTTCCA	-0.098
AGCCACGC	-0.0981
TCCCCCCA	-0.325
CAAATGAA	0.14
TCTACACA	0.042
AAAACCCC	-0.249
GCGGTTTA	0.11
ATGCGATA	0.0202
ATGCGAGG	0.107
AATCCTAG	0.0605
GCCTTGAA	-0.185
CCCGCAGA	-0.0892
CAGCAACG	0.233
GGACGACC	-0.359
AGCTAGAA	0.0175
AGCTGAGA	-0.0704
AAACGTTC	0.044
ATGGCTCC	-0.118
CCCGGTCG	-0.211
AAATTGCC	0.172
CCGCGACC	-0.157
GAGGCTCC	-0.116

Sequence	PBM E-score
TAAAGTTA	0.243
TACGGTCA	0.0709
AGGTTGCG	-0.133
CGAGCTAC	-0.0458
ACCGTTGC	-0.0634
CCTACGGC	-0.172
CACGACTG	-0.0983
TCGCGGCA	-0.0618
GGAGGTCA	-0.294
AGGACCAT	-0.0436
CATTAATC	0.0977
AAACATAC	0.0457
AGTCCTAC	-0.125
GATCATAA	0.209
ATGCGATC	0.0595
ATGAAAGG	0.044
CCACGCAG	-0.167
GCGAACCA	0.0248
ACCATACT	0.188
CGACTCCC	-0.136
TACCTTGA	0.0307
AATTATAA	0.224
ATACCGAT	0.0926
TAAGAAGA	0.152
AAAGATGC	-0.00735

Sequence	PBM E-score
TAAATGGA	0.122
GAAGACCC	-0.137
CCCAAATA	-0.00299
CTAATAGC	-0.0918
AAATAGGC	0.0995
ATGTCAAG	-0.0356
AGTATGGG	-0.092
GGAGCCTA	-0.0407
CATAAGAA	0.21
GAGGCGCA	-0.0003
GTATAAAC	0.206
AAGTGCGC	0.0312
CATGACAG	-0.0116
ATACATAG	0.112
GTGAAATA	0.0605
ATAAGAGA	0.0807
AACTTCAA	0.04
CTACGCGA	0.0426
ATAAAACC	0.146
GCAAGCGC	0.0309
ACGAAAGT	0.0801
AAATGAGT	0.23

Looked up above.
Entry of CCCAAATA under PBM E-score: -0.00299
Entry of ATACATAG under PBM E-score: 0.112
Entry of CTACGCGA under PBM E-score: 0.0426
